Assay results as given in patent US20120309812A1 (SYNGENTA CROP PROTECTION LLC, priority 2010, published 2012).
Some entries share one result that the patent states for a list of compounds.

Experiments:
Format in all cases: in vivo
Plutella xylostella = Plutella xylostella (Diamond back moth) artificial diet test; details: application rate 200 ppm (concentration in well 18 ppm), L2 larvae, larval mortality and growth regulation after 6 days
Heliothis virescens = Heliothis virescens (Tobacco budworm) egg/artificial diet test; details: application rate 200 ppm (concentration in well 18 ppm), eggs on artificial diet, egg mortality, larval mortality and growth regulation after 4 days
Diabrotica balteata = Diabrotica balteata (Corn root worm) artificial diet test; details: application rate 200 ppm (concentration in well 18 ppm), L2 larvae, larval mortality and growth regulation after 5 days
Spodoptera littoralis = Spodoptera littoralis (Egyptian cotton leafworm) cotton leaf disc spray test; details: application rate 200 ppm, sprayed cotton leaf discs, L1 larvae, mortality, feeding behavior and growth regulation 3 DAT
Tetranychus urticae = Tetranychus urticae (Two-spotted spider mite) bean leaf disc spray test; details: application rate 200 ppm, sprayed bean leaf discs, mite populations of mixed ages, egg, larval and adult mortality after 8 days
Thrips tabaci = Thrips tabaci (Onion thrips) sunflower leaf disc spray test; details: application rate 200 ppm, sprayed sunflower leaf discs, population of mixed ages, mortality after 7 days

Cc1cc(C(F)(c2ccc(C(F)(F)F)cc2)C(F)(F)F)cc(C)c1NC(=O)c1cccc(NC(=O)c2ccc(F)cc2)c1 (stereo not drawn) [A1, 3-[(4-fluorobenzoyl)amino]-N-{2,6-dimethyl-4-[1-(4-trifluoromethylphenyl)-2,2,2-trifluoro-1-fluoroethyl]phenyl}benzamide]
at least 80%: control of Plutella xylostella (Plutella xylostella) | control of Heliothis virescens (Heliothis virescens) | control of Diabrotica balteata (Diabrotica balteata)

COc1c(NC(=O)c2ccccc2)cccc1C(=O)Nc1c(Cl)cc(C(F)(c2ccc(Cl)cc2)C(F)(F)F)cc1Cl (stereo not drawn) [A3]
at least 80%: control of Plutella xylostella (Plutella xylostella) | control of Spodoptera littoralis (Spodoptera littoralis) | control of Heliothis virescens (Heliothis virescens) | control of Diabrotica balteata (Diabrotica balteata) | control of Tetranychus urticae (Tetranychus urticae)

N#Cc1ccc(C(=O)Nc2c(Cl)cc(C(F)(c3ccc(Cl)cc3)C(F)(F)F)cc2Cl)cc1NC(=O)c1cccc(F)c1 (stereo not drawn) [A9]
at least 80%: control of Plutella xylostella (Plutella xylostella) | control of Spodoptera littoralis (Spodoptera littoralis) | control of Heliothis virescens (Heliothis virescens) | control of Thrips tabaci (Thrips tabaci) | control of Diabrotica balteata (Diabrotica balteata)

Cc1ccccc1C(=O)Nc1cc(C(=O)Nc2c(Cl)cc(C(F)(c3ccc(Cl)cc3)C(F)(F)F)cc2Cl)ccc1C#N (stereo not drawn) [A10]
at least 80%: control of Plutella xylostella (Plutella xylostella) | control of Spodoptera littoralis (Spodoptera littoralis) | control of Heliothis virescens (Heliothis virescens) | control of Thrips tabaci (Thrips tabaci) | control of Diabrotica balteata (Diabrotica balteata) | control of Tetranychus urticae (Tetranychus urticae)

N#Cc1ccc(C(=O)Nc2c(Cl)cc(C(F)(c3ccc(Cl)cc3)C(F)(F)F)cc2Cl)cc1NC(=O)c1ccccc1Cl (stereo not drawn) [A11]
at least 80%: control of Plutella xylostella (Plutella xylostella) | control of Spodoptera littoralis (Spodoptera littoralis) | control of Heliothis virescens (Heliothis virescens) | control of Thrips tabaci (Thrips tabaci) | control of Diabrotica balteata (Diabrotica balteata) | control of Tetranychus urticae (Tetranychus urticae)

N#Cc1ccc(C(=O)Nc2cc(C(=O)Nc3c(Cl)cc(C(F)(c4ccc(Cl)cc4)C(F)(F)F)cc3Cl)ccc2C#N)cc1 (stereo not drawn) [A12]
at least 80%: control of Plutella xylostella (Plutella xylostella) | control of Spodoptera littoralis (Spodoptera littoralis) | control of Heliothis virescens (Heliothis virescens) | control of Thrips tabaci (Thrips tabaci) | control of Diabrotica balteata (Diabrotica balteata) | control of Tetranychus urticae (Tetranychus urticae)

Cc1ccc(C(=O)Nc2cc(C(=O)Nc3c(Cl)cc(C(F)(c4ccc(Cl)cc4)C(F)(F)F)cc3Cl)ccc2C#N)cc1 (stereo not drawn) [A13]
at least 80%: control of Plutella xylostella (Plutella xylostella) | control of Heliothis virescens (Heliothis virescens) | control of Thrips tabaci (Thrips tabaci) | control of Diabrotica balteata (Diabrotica balteata)

Cc1cc(F)ccc1C(=O)Nc1cc(C(=O)Nc2c(Cl)cc(C(F)(c3ccc(Cl)cc3)C(F)(F)F)cc2Cl)ccc1C#N (stereo not drawn) [A14]
at least 80%: control of Plutella xylostella (Plutella xylostella) | control of Spodoptera littoralis (Spodoptera littoralis) | control of Heliothis virescens (Heliothis virescens) | control of Thrips tabaci (Thrips tabaci) | control of Diabrotica balteata (Diabrotica balteata) | control of Tetranychus urticae (Tetranychus urticae)

N#Cc1ccc(C(=O)Nc2c(Cl)cc(C(F)(c3ccc(Cl)cc3)C(F)(F)F)cc2Cl)cc1NC(=O)c1cc(Cl)ccc1F (stereo not drawn) [A15]
at least 80%: control of Plutella xylostella (Plutella xylostella) | control of Spodoptera littoralis (Spodoptera littoralis) | control of Heliothis virescens (Heliothis virescens) | control of Diabrotica balteata (Diabrotica balteata)

N#Cc1ccc(C(=O)Nc2c(Cl)cc(C(F)(c3ccc(Cl)cc3)C(F)(F)F)cc2Cl)cc1NC(=O)c1ccc([N+](=O)[O-])cc1Cl (stereo not drawn) [A16]
at least 80%: control of Plutella xylostella (Plutella xylostella) | control of Spodoptera littoralis (Spodoptera littoralis) | control of Heliothis virescens (Heliothis virescens) | control of Thrips tabaci (Thrips tabaci) | control of Diabrotica balteata (Diabrotica balteata) | control of Tetranychus urticae (Tetranychus urticae)

N#Cc1ccc(C(=O)Nc2c(Cl)cc(C(F)(c3ccc(Cl)cc3)C(F)(F)F)cc2Cl)cc1NC(=O)c1ccco1 (stereo not drawn) [A17]
at least 80%: control of Plutella xylostella (Plutella xylostella) | control of Spodoptera littoralis (Spodoptera littoralis) | control of Heliothis virescens (Heliothis virescens) | control of Diabrotica balteata (Diabrotica balteata)

N#Cc1ccc(C(=O)Nc2c(Cl)cc(C(F)(c3ccc(Cl)cc3)C(F)(F)F)cc2Cl)cc1NC(=O)c1ccc(OC(F)(F)F)cc1 (stereo not drawn) [A18]
at least 80%: control of Plutella xylostella (Plutella xylostella) | control of Heliothis virescens (Heliothis virescens) | control of Thrips tabaci (Thrips tabaci) | control of Diabrotica balteata (Diabrotica balteata)

N#Cc1ccc(C(=O)Nc2c(Cl)cc(C(F)(c3ccc(Cl)cc3)C(F)(F)F)cc2Cl)cc1NC(=O)c1ccc(F)c(C(F)(F)F)c1 (stereo not drawn) [A19]
at least 80%: control of Spodoptera littoralis (Spodoptera littoralis) | control of Heliothis virescens (Heliothis virescens) | control of Diabrotica balteata (Diabrotica balteata)

N#Cc1ccc(C(=O)Nc2c(Cl)cc(C(F)(c3ccc(Cl)cc3)C(F)(F)F)cc2Cl)cc1NC(=O)c1ccc(C(F)(F)F)cc1 (stereo not drawn) [A20]
at least 80%: control of Heliothis virescens (Heliothis virescens) | control of Thrips tabaci (Thrips tabaci) | control of Diabrotica balteata (Diabrotica balteata) | control of Tetranychus urticae (Tetranychus urticae)

N#Cc1ccc(C(=O)Nc2c(Cl)cc(C(F)(c3ccc(Cl)cc3)C(F)(F)F)cc2Cl)cc1NC(=O)c1ccccc1OC(F)(F)F (stereo not drawn) [A21]
at least 80%: control of Plutella xylostella (Plutella xylostella) | control of Spodoptera littoralis (Spodoptera littoralis) | control of Heliothis virescens (Heliothis virescens) | control of Diabrotica balteata (Diabrotica balteata)

N#Cc1ccc(C(=O)Nc2c(Cl)cc(C(F)(c3ccc(Cl)cc3)C(F)(F)F)cc2Cl)cc1NC(=O)c1ccccc1 (stereo not drawn) [A23]
at least 80%: control of Plutella xylostella (Plutella xylostella) | control of Spodoptera littoralis (Spodoptera littoralis) | control of Heliothis virescens (Heliothis virescens) | control of Thrips tabaci (Thrips tabaci) | control of Diabrotica balteata (Diabrotica balteata) | control of Tetranychus urticae (Tetranychus urticae)

N#Cc1ccc(C(=O)Nc2c(Cl)cc(C(F)(c3ccc(Cl)cc3)C(F)(F)F)cc2Cl)cc1NC(=O)c1ccc(F)cc1 (stereo not drawn) [A24]
at least 80%: control of Plutella xylostella (Plutella xylostella) | control of Spodoptera littoralis (Spodoptera littoralis) | control of Heliothis virescens (Heliothis virescens) | control of Thrips tabaci (Thrips tabaci) | control of Diabrotica balteata (Diabrotica balteata) | control of Tetranychus urticae (Tetranychus urticae)

N#Cc1ccc(C(=O)Nc2c(Cl)cc(C(F)(c3ccc(Cl)cc3)C(F)(F)F)cc2Cl)cc1NC(=O)c1ccccc1C(F)(F)F (stereo not drawn) [A25]
at least 80%: control of Plutella xylostella (Plutella xylostella) | control of Spodoptera littoralis (Spodoptera littoralis) | control of Heliothis virescens (Heliothis virescens) | control of Thrips tabaci (Thrips tabaci) | control of Diabrotica balteata (Diabrotica balteata)

N#Cc1ccc(C(=O)Nc2c(Cl)cc(C(F)(c3ccc(Cl)cc3)C(F)(F)F)cc2Cl)cc1NC(=O)c1cccc(F)c1F (stereo not drawn) [A26]
at least 80%: control of Plutella xylostella (Plutella xylostella) | control of Spodoptera littoralis (Spodoptera littoralis) | control of Heliothis virescens (Heliothis virescens) | control of Thrips tabaci (Thrips tabaci) | control of Diabrotica balteata (Diabrotica balteata)

N#Cc1ccc(C(=O)Nc2c(Cl)cc(C(F)(c3ccc(Cl)cc3)C(F)(F)F)cc2Cl)cc1NC(=O)c1ccc(F)cc1F (stereo not drawn) [A27]
at least 80%: control of Plutella xylostella (Plutella xylostella) | control of Spodoptera littoralis (Spodoptera littoralis) | control of Heliothis virescens (Heliothis virescens) | control of Thrips tabaci (Thrips tabaci) | control of Diabrotica balteata (Diabrotica balteata) | control of Tetranychus urticae (Tetranychus urticae)

N#Cc1ccc(C(=O)Nc2c(Cl)cc(C(F)(c3ccc(Cl)cc3)C(F)(F)F)cc2Cl)cc1NC(=O)c1cc(C(F)(F)F)ccc1F (stereo not drawn) [A28]
at least 80%: control of Heliothis virescens (Heliothis virescens) | control of Tetranychus urticae (Tetranychus urticae)

COc1ccc(C(F)(c2cc(Cl)c(NC(=O)c3cccc(NC(=O)c4c(F)cc(F)cc4F)c3F)c(Cl)c2)C(F)(F)F)cc1 (stereo not drawn) [A29]
at least 80%: control of Plutella xylostella (Plutella xylostella)

O=C(Nc1c(Cl)cc(C(F)(c2ccc(OC(F)(F)F)cc2)C(F)(F)F)cc1Cl)c1cccc(NC(=O)c2c(F)cc(F)cc2F)c1F (stereo not drawn) [A30]
at least 80%: control of Plutella xylostella (Plutella xylostella) | control of Spodoptera littoralis (Spodoptera littoralis) | control of Heliothis virescens (Heliothis virescens) | control of Thrips tabaci (Thrips tabaci) | control of Diabrotica balteata (Diabrotica balteata)

O=C(Nc1c(Cl)cc(C(F)(c2ccccc2)C(F)(F)F)cc1Cl)c1cccc(NC(=O)c2c(F)cc(F)cc2F)c1F (stereo not drawn) [A32]
at least 80%: control of Thrips tabaci (Thrips tabaci) | control of Diabrotica balteata (Diabrotica balteata) | control of Tetranychus urticae (Tetranychus urticae)

O=C(Nc1c(Cl)cc(C(F)(c2cccc(F)c2)C(F)(F)F)cc1Cl)c1cccc(NC(=O)c2c(F)cc(F)cc2F)c1F (stereo not drawn) [A33]
at least 80%: control of Thrips tabaci (Thrips tabaci) | control of Diabrotica balteata (Diabrotica balteata)

O=C(Nc1c(Cl)cc(C(F)(c2nccs2)C(F)(F)F)cc1Cl)c1cccc(NC(=O)c2c(F)cc(F)cc2F)c1F (stereo not drawn) [A34]
at least 80%: control of Thrips tabaci (Thrips tabaci) | control of Diabrotica balteata (Diabrotica balteata)

O=C(Nc1c(Cl)cc(C(F)(c2ccc(F)cc2)C(F)(F)F)cc1Cl)c1cccc(NC(=O)c2c(F)cc(F)cc2F)c1F (stereo not drawn) [A36]
at least 80%: control of Plutella xylostella (Plutella xylostella) | control of Heliothis virescens (Heliothis virescens) | control of Thrips tabaci (Thrips tabaci) | control of Diabrotica balteata (Diabrotica balteata) | control of Tetranychus urticae (Tetranychus urticae)

O=C(Nc1c(Cl)cc(C(F)(c2ccc(Cl)cc2)C(F)(F)F)cc1Cl)c1cccc(NC(=O)c2c(F)cc(F)cc2F)c1F (stereo not drawn) [A37]
at least 80%: control of Plutella xylostella (Plutella xylostella) | control of Spodoptera littoralis (Spodoptera littoralis) | control of Heliothis virescens (Heliothis virescens) | control of Thrips tabaci (Thrips tabaci) | control of Diabrotica balteata (Diabrotica balteata)
